{"source": "patent US20100261877A1", "about": "(priority 2009, published 2010)", "experiment": "peptide synthesis", "settings": "area normalization"}
{"substance": "linaclotide", "values": [{"measurement": "final HPLC purity", "setting": "purification step", "value": 97.0, "unit": "%"}, {"measurement": "final HPLC purity", "setting": "whole synthesis", "value": 97.4, "unit": "%"}]}
